Reference: patent publication US20170319655A1
These are yes or no findings as the source states them, for the method shown. Some binding calls cover weakened binding; strength is not graded here. Where a sequence is shown, tags or fusion partners need not be part of it.

Chains of the proteins cited; added tags and fusions are not shown. Lines headed by an entry give the natural chain unless they say otherwise; changes in a name come on top.
UniProt P15941: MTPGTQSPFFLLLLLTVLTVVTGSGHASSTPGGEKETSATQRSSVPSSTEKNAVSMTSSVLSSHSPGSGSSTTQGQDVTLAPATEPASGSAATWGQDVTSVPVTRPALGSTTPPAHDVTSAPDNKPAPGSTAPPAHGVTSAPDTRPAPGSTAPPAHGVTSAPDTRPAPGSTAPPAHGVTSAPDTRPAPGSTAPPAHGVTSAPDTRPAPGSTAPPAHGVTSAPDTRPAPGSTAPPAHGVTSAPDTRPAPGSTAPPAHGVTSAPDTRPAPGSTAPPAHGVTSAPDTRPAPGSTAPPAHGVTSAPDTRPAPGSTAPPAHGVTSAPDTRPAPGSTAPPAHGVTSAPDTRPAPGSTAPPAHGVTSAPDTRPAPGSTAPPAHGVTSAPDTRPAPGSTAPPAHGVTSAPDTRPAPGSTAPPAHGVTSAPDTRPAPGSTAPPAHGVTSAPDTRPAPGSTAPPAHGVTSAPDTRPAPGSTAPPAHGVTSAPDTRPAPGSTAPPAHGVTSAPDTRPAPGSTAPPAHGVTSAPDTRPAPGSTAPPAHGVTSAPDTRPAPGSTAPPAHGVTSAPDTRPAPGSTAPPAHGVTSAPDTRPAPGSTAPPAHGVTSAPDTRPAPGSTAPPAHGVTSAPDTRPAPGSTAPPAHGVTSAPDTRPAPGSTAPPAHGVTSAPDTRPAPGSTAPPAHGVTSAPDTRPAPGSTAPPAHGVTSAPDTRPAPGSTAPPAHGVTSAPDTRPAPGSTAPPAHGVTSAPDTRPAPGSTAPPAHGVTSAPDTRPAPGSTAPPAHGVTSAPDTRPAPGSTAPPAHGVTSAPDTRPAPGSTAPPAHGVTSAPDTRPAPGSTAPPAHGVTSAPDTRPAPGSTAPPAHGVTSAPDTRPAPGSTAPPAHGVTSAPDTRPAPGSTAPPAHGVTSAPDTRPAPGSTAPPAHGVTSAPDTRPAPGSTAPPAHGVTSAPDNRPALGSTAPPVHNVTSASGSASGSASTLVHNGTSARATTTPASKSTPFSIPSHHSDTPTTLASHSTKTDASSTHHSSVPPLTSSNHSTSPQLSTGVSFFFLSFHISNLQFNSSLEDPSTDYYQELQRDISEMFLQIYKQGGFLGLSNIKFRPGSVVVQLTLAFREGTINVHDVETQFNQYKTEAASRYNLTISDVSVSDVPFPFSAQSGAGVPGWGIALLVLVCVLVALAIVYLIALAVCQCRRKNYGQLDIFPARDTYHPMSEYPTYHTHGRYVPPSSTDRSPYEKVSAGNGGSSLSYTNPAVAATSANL

Key:
[1] = target: MUC1-ED on Ad-GFP-infected airway epithelial cells (A549 cells; SAECs) (human) (UniProt P15941); experiment: Alexa Fluor 594-flagellin binding to A549 cells, fluorometry
[2] = target: MUC1-ED on Ad-NEU1-infected airway epithelial cells (A549 cells; SAECs), desialylated by overexpressed NEU1 (human) (UniProt P15941); experiment: as above
[3] = target: MUC1-ED on Ad-NEU1-infected airway epithelial cells (A549 cells; SAECs), desialylated by overexpressed NEU1 (human) (UniProt P15941); experiment: Alexa Fluor 594-flagellin binding to A549 cells, Scatchard transformation

Measured: binding

B1: Pseudomonas aeruginosa (Pa) flagellin purified from Pa strain PA01, Alexa Fluor 594-labeled (ligand)
chain: MALTVNTNIASLNTQRNLNASSNDLNTSLQRLTTGYRINSAKDDAAGLQISNRLSNQISGLNVATRNANDGISLAQTAEGALQQSTNILQRIRDLALQSANGSNSDADRAALQKEVAAQQAELTRISDTTTFGGRKLLDGSFGTTSFQVGSNAYETIDISLQNASASAIGSYQVGSNGAGTVASVAGTATASGIASGTVNLVGGGQVKNIAIAAGDSAKAIAEKMDGAIPNLSARARTVFTADVSGVTGGSLNFDVTVGSNTVSLAGVTSTQDLADQLNSNSSKLGITASINDKGVLTITSATGENVKFGAQTGTATAGQVAVKVQGSDGKFEAAAKNVVAAGTAATTTIVTGYVQLNSPTAYSVSGTGTQASQVFGNASAAQKSSVASVDISTADGAQNAIAVVDNALAAIDAQRADLGAVQNRFKNTIDNLTNISENATNARSRIKDTDFAAETAALSKNQVLQQAGTAILAQANQLPQAVLSLLR
modifications: Alexa Fluor 594 label (site not stated)
binds: all assays above
